{"source": "paper PMC3607560", "target": "T1, ^NYGIRK3 (^NYFP fused to the N-terminal domain of GIRK3) (UniProt P48543)", "T1 sequence": "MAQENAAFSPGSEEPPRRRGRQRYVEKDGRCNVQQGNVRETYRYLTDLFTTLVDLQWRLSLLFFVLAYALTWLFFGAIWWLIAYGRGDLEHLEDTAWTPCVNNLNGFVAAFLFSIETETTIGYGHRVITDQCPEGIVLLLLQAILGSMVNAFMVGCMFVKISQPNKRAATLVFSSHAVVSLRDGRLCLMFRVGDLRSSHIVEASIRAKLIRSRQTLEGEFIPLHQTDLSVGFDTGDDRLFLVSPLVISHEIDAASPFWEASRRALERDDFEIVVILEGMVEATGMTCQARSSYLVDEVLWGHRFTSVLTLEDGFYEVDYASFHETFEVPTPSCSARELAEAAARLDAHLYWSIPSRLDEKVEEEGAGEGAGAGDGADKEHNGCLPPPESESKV", "assay": "split reporter; BiFC with split YFP in transiently transfected HEK293 cells, 37°C for 24 h and 30°C for another 24 h, fixed, confocal microscopy", "note": "Results are given in words; binding and its absence hold for the method and conditions named. Binding seen in cells or lysates may run through a third protein. Binding calls can cover weak binding; strength is not graded here. Where a sequence is shown, tags or fusion partners need not be part of it.", "data": [{"substance": "^CYGIRK2c (^CYFP fused to the N-terminal domain of GIRK2c) (from UniProt P48542-1)", "values": [{"measurement": "binding", "value": "binds"}]}]}
